In test [1] the target is growth hormone secretagogue receptor (GHSR), NHA- or FLAG-tagged, for sandwich ELISA (human) (UniProt Q92847). Nature of the test: ELISA; sandwich ELISA: COS7 cells co-transfected with an NHA-tagged and a C-Flag-tagged receptor (and reversely tagged, data pooled), lysed 48 h after transfection, lysate on an anti-Flag-M2 coated plate, detected with biotin-labeled anti-HA antibody and streptavidin-HRP; fold over mock ….

Protein sequences, listed by entry. Tags and fused reporters are not part of them. Lines headed by an entry give the natural chain unless they say otherwise; changes in a name come on top.
UniProt Q92847: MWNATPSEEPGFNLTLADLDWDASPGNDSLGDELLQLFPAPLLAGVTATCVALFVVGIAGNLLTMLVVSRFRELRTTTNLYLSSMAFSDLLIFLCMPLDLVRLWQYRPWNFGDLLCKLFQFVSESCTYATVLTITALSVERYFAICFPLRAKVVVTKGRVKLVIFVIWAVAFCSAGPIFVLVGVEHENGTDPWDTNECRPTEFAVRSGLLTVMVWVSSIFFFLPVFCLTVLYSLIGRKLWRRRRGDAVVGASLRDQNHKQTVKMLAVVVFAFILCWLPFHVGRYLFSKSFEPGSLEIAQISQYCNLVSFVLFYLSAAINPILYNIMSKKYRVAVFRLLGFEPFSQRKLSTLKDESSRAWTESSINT
UniProt P41968: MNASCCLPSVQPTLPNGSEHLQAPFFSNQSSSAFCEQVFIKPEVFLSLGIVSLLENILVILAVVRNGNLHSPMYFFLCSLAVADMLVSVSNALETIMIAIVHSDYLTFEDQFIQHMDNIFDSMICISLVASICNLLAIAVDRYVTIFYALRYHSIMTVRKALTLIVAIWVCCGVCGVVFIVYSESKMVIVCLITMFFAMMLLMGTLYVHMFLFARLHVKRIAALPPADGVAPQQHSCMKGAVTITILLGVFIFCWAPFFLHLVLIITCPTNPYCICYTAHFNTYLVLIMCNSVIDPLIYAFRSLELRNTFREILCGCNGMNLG
UniProt P14416: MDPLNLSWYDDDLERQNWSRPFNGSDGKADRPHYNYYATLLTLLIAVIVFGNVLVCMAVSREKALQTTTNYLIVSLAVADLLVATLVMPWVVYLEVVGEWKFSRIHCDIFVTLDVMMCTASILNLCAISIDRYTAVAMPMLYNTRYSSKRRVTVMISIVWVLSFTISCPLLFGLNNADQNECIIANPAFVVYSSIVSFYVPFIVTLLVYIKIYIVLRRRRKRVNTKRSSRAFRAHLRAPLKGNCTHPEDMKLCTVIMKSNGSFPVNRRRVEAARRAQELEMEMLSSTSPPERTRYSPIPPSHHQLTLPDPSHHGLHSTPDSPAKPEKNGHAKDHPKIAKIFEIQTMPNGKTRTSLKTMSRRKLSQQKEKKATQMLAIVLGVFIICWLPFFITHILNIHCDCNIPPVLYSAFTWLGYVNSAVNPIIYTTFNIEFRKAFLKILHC
UniProt P28222: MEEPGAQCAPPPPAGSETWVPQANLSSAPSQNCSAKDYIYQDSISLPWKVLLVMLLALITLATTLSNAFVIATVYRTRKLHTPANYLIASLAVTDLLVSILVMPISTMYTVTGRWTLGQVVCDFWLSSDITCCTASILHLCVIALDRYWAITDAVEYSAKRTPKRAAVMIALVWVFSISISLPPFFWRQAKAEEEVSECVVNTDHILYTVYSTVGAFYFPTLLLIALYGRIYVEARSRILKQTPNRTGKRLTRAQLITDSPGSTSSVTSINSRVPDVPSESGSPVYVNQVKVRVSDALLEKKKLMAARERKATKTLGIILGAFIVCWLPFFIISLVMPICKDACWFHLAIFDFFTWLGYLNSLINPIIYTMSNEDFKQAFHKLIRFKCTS

In test [2] the target is Melanocortin-3 receptor (MC3R), CFP- or YFP-tagged, for FRET (UniProt P41968). Nature of the test: FRET or BRET; FRET by acceptor photobleaching in HEK293 cells co-transfected with a CFP-tagged and a YFP-tagged receptor (and vice versa), 72 h after transfection; a stable interaction defined by a FRET efficiency between 8 and 25%.
The target in test [3] is DRD2 (D2R), NHA- or FLAG-tagged, for sandwich ELISA (UniProt P14416). Nature of the test: ELISA; sandwich ELISA: COS7 cells co-transfected with an NHA-tagged and a C-Flag-tagged receptor (and reversely tagged, data pooled), lysed 48 h after transfection, lysate on an anti-Flag-M2 coated plate, detected with biotin-labeled anti-HA antibody and streptavidin-HRP; fold over mock …. In general terms: ELISA stands for enzyme-linked immunosorbent assay.

The target of test [4] is serotonin receptor 1b (5-HT1b), NHA- or C-Flag-tagged, for sandwich ELISA (human) (UniProt P28222). The description is as above.
For test [5], the target named is trace amine associated receptor 1 (TAAR1), NHA- or C-Flag-tagged, for sandwich ELISA (human) (UniProt Q96RJ0). The test is described as above.

These are yes or no findings as the source states them, for the method shown. For some assays here: In cells and extracts the contact can be indirect. Some results given as binding are weak or reduced against the parent protein; the word gives no strength. For some assays here: Where a sequence is shown, tags or fusion partners need not be part of it.

Take “growth hormone secretagogue receptor (GHSR), NHA- or FLAG-tagged, for sandwich ELISA (from UniProt Q92847 1-366)”: in test [1], the binding result is “binds”. On to “growth hormone secretagogue receptor (GHSR), CFP- or YFP-tagged, for FRET (from UniProt Q92847 1-366)”, for which the binding result in test [2] is reported as “binds”.

B1: trace amine associated receptor 1 (TAAR1), NHA- or C-Flag-tagged, for sandwich ELISA (receptor, UniProt Q96RJ0 1-339)
chain: MMPFCHNIINISCVKNNWSNDVRASLYSLMVLIILTTLVGNLIVIVSISHFKQLHTPTNWLIHSMATVDFLLGCLVMPYSMVRSAEHCWYFGEVFCKIHTSTDIMLSSASIFHLSFISIDRYYAVCDPLRYKAKMNILVICVMIFISWSVPAVFAFGMIFLELNFKGAEEIYYKHVHCRGGCSVFFSKISGVLTFMTSFYIPGSIMLCVYYRIYLIAKEQARLISDANQKLQIGLEMKNGISQSKERKAVKTLGIVMGVFLICWCPFFICTVMDPFLHYIIPPTLNDVLIWFGYLNSTFNPMVYAFFYPWFRKALKMMLFGKIFQKDSSRCKLFLELSS
For B1, the binding result in test [3], in test [4] and in test [5] was “binds” in each case.

For the origin of these results see PMC5857711.
